# Experimental data: publication doi:10.1101/2022.05.26.493655
# Protein sequences, listed by entry. Tags and fused reporters are not part of them.
# UniProt Q13601: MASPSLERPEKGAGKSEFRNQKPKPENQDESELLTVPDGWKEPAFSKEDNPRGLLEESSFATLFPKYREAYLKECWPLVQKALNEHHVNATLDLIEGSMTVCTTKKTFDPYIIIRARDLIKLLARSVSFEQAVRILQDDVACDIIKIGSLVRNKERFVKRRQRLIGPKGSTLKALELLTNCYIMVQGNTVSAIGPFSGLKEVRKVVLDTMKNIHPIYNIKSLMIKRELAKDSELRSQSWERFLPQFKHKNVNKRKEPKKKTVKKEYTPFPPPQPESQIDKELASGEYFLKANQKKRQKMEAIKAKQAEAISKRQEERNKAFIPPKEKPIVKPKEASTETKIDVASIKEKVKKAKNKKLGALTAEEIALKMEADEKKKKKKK
# UniProt Q15024: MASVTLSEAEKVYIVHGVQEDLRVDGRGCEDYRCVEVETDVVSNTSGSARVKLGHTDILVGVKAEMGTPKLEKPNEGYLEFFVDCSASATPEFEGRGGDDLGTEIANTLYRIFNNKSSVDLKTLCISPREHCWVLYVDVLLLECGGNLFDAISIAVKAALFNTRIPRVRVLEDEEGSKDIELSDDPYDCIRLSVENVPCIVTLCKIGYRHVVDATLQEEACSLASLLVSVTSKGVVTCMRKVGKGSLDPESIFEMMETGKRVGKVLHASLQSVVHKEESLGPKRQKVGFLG
# These are yes or no findings as the source states them, for the method shown. Binding seen in cells or lysates may run through a third protein. Here binding means that the protein was enriched with, or labelled near, the bait; the list need not be complete. Where a sequence is shown, tags or fusion partners need not be part of it.
# T1: GFP-ZNF692 WT (zinc finger protein 692), expressed in HCT116 cells (human) (UniProt Q9BU19)
# T1 sequence: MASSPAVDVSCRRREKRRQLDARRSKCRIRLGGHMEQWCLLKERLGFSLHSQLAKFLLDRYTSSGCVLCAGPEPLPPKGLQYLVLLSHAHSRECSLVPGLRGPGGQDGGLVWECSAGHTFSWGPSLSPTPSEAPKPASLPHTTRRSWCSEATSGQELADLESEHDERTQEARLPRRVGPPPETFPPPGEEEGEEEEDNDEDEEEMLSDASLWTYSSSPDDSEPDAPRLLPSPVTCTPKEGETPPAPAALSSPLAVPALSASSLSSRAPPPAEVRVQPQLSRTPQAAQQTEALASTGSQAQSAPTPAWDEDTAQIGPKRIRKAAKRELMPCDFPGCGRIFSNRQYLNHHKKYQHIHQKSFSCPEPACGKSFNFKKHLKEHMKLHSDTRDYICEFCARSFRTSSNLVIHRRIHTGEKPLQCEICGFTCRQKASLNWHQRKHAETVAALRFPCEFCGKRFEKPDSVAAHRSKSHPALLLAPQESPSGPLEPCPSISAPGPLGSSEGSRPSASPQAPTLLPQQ
# Biological target: T1, GFP-ZNF692 WT (zinc finger protein 692), expressed in HCT116 cells (human)
# Experiment: affinity purification with mass spectrometry
row,binding,Molecule
1,binds,KRR1 (from UniProt Q13601 1-381)
2,binds,EXOSC7 (from UniProt Q15024 1-291)
3,binds,"NOP2 (protein, UniProt P46087 1-812) MGRKLDPTKEKRGPGRKARKQKGAETELVRFLPAVSDENSKRLSSRARKRAAKRRLGSVEAPKTNKSPEAKPLPGKLPKGISAGAVQTAGKKGPQSLFNAPRGKKRPAPGSDEEEEEEDSEEDGMVNHGDLWGSEDDADTVDDYGADSNSEDEEEGEALLPIERAARKQKAREAAAGIQWSEEETEDEEEEKEVTPESGPPKVEEADGGLQINVDEEPFVLPPAGEMEQDAQAPDLQRVHKRIQDIVGILRDFGAQREEGRSRSEYLNRLKKDLAIYYSYGDFLLGKLMDLFPLSELVEFLEANEVPRPVTLRTNTLKTRRRDLAQALINRGVNLDPLGKWSKTGLVVYDSSVPIGATPEYLAGHYMLQGASSMLPVMALAPQEHERILDMCCAPGGKTSYMAQLMKNTGVILANDANAERLKSVVGNLHRLGVTNTIISHYDGRQFPKVVGGFDRVLLDAPCSGTGVISKDPAVKTNKDEKDILRCAHLQKELLLSAIDSVNATSKTGGYLVYCTCSITVEENEWVVDYALKKRNVRLVPTGLDFGQEGFTRFRERRFHPSLRSTRRFYPHTHNMDGFFIAKFKKFSNSIPQSQTGNSETATPTNVDLPQVIPKSENSSQPAKKAKGAAKTKQQLQKQQHPKKASFQKLNGISKGADSELSTVPSVTKTQASSSFQDSSQPAGKAEGIREPKVTGKLKQRSPKLQSSKKVAFLRQNAPPKGTDTQTPAVLSPSKTQATLKPKDHHQPLGRAKGVEKQQLPEQPFEKAAFQKQNDTPKGPQPPTVSPIRSSRPPPAKRKKSQSRGNSQLLLS"
4,binds,"RCL1 (protein, UniProt Q9Y2P8 1-373) MATQAHSLSYAGCNFLRQRLVLSTLSGRPVKIRKIRARDDNPGLRDFEASFIRLLDKITNGSRIEINQTGTTLYYQPGLLYGGSVEHDCSVLRGIGYYLESLLCLAPFMKHPLKIVLRGVTNDQVDPSVDVLKATALPLLKQFGIDGESFELKIVRRGMPPGGGGEVVFSCPVRKVLKPIQLTDPGKIKRIRGMAYSVRVSPQMANRIVDSARSILNKFIPDIYIYTDHMKGVNSGKSPGFGLSLVAETTSGTFLSAELASNPQGQGAAVLPEDLGRNCARLLLEEIYRGGCVDSTNQSLALLLMTLGQQDVSKVLLGPLSPYTIEFLRHLKSFFQIMFKIETKPCGEELKGGDKVLMTCVGIGFSNLSKTLK"
5,binds,"IMP3 (protein, UniProt Q9NV31 1-184) MVRKLKFHEQKLLKQVDFLNWEVTDHNLHELRVLRRYRLQRREDYTRYNQLSRAVRELARRLRDLPERDQFRVRASAALLDKLYALGLVPTRGSLELCDFVTASSFCRRRLPTVLLKLRMAQHLQAAVAFVEQGHVRVGPDVVTDPAFLVTRSMEDFVTWVDSSKIKRHVLEYNEERDDFDLEA"
